Measurements: patent US6946547B2, “Ecstasy-class analogs and use of same in detection of ecstasy-class compounds” (Microgenics Corporation, priority 2000, dated 2005)
Marks after values point to notes of the source that are not given here.

How the values were obtained:
Antibody 1A9 = test: CEDIA ecstasy-class assay on a Hitachi clinical chemistry analyzer; format: binding, mouse
Method: Antibodies obtained using any of the aforementioned techniques are screened or purified not only for their ability to react with an ecstasy-class compound, but also for a low cross-reactivity with potential interfering substances. “Cross reactivity” is determined in a quantitative immunoassay by establishing a standard curve using known dilutions of the target analyte, e.g., MDMA. […] The cross-reactivity is the apparent concentration divided by the actual concentration multiplied by 100. […] Alternatively, the cross-reactivity can be determined in the same type of immunoassay in which the antibody will ultimately be used.
• a. Preparation of Reagents:
Enzyme Donor (ED) Reagent was prepared as a liquid reagent with the components below:
Assay Protocol: The assay was performed on a Hitachi clinical chemistry analyzer as follows: Sample was pipetted into a reaction cuvette. EA reagent, containing antibody, was added. The mixture was incubated at 37° C. for approximately 5 minutes. ED reagent containing […] was subsequently added, and the incubation continued for 4 minutes at 37° C. The rate of substrate hydrolysis was measured photometrically at 570 nm (with subtraction of background at 660 nm) from four to five minutes after ED addition.

[1] = Standard CEDIA DAU Amphetamines assay, Hitachi 911
[2] = system: 1A9 anti-ecstasy antibody; test: Enhanced CEDIA DAU Amphetamines assay (1A9 antibody and ED28-(MB-MDA)2 added)
[3] = Antibody 1A9, Experiment 1, concentration 300 ng/mL
[4] = Antibody 1A9, Experiment 1, concentration 300 ng/mL, from MDMA standard curve
[5] = Antibody 1A9, Experiment 1, concentration 1000 ng/mL
[6] = Antibody 1A9, Experiment 1, concentration 1000 ng/mL, from MDMA standard curve
[7] = Antibody 1A9, Experiment 1, concentration 5000 ng/mL
[8] = Antibody 1A9, Experiment 1, concentration 5000 ng/mL, from MDMA standard curve
[9] = Antibody 1A9, Experiment 2, concentration 600,000 ng/mL
[10] = Antibody 1A9, Experiment 2, concentration 1,000,000 ng/mL

## CCC(N)Cc1ccc2c(c1)OCO2 (stereo not drawn) [BDB, 1-(3,4-methylenedioxyphenyl)-2-butanamine]
Antibody 1A9; [3]
  Rate: 169 MAU/min
Antibody 1A9; [4]
  Apparent Dose: 100 ng/mL
Antibody 1A9; [5]
  Rate: 465 MAU/min
Antibody 1A9; [6]
  Apparent Dose: 500* ng/mL
Antibody 1A9; [7]
  Rate: 772 MAU/min
Antibody 1A9; [8]
  Apparent Dose: 1490 ng/mL

## CNC(C)Cc1ccc(O)c(OC)c1 (stereo not drawn) [HMMA, 4-hydroxy-3-methoxymethamphetamine]
Antibody 1A9; [3]
  Rate: 80 MAU/min
Antibody 1A9; [4]
  Apparent Dose: 0 ng/mL

## CCC(Cc1ccc2c(c1)OCO2)NC (stereo not drawn) [MBDB, N-methyl-1-(3,4-methylenedioxyphenyl)-2-butanamine]
Antibody 1A9; [3]
  Rate: 143 MAU/min
Antibody 1A9; [4]
  Apparent Dose: 70 ng/mL
Antibody 1A9; [5]
  Rate: 341 MAU/min
Antibody 1A9; [6]
  Apparent Dose: 290 ng/mL
Antibody 1A9; [7]
  Rate: 695 MAU/min
Antibody 1A9; [8]
  Apparent Dose: 890 ng/mL

## CC(N)Cc1ccc2c(c1)OCO2 (stereo not drawn) [MDA, 3,4-methylenedioxyamphetamine]
Antibody 1A9; [3]
  Rate: 228 MAU/min
Antibody 1A9; [4]
  Apparent Dose: 160 ng/mL
Antibody 1A9; [5]
  Rate: 573 MAU/min
Antibody 1A9; [6]
  Apparent Dose: 680 ng/mL
Antibody 1A9; [7]
  Rate: 807 MAU/min
Antibody 1A9; [8]
  Apparent Dose: 3160 ng/mL
[1]; 150 ng/mL
  Standard CEDIA Amphetamines Mean Rates: 155.6 mAU/min
[1]; 300 ng/mL
  Standard CEDIA Amphetamines Mean Rates: 156.7 mAU/min
[1]; 500 ng/mL
  Standard CEDIA Amphetamines Mean Rates: 157.9 mAU/min
[1]; 700 ng/mL
  Standard CEDIA Amphetamines Mean Rates: 159.1 mAU/min
[1]; 1000 ng/mL
  Standard CEDIA Amphetamines Mean Rates: 160.7 mAU/min
[2]; 150 ng/mL
  Enhanced CEDIA Amphetamines Mean Rates: 228.4 mAU/min
[2]; 300 ng/mL
  Enhanced CEDIA Amphetamines Mean Rates: 257.3 mAU/min
[2]; 500 ng/mL
  Enhanced CEDIA Amphetamines Mean Rates: 300.3 mAU/min
[2]; 700 ng/mL
  Enhanced CEDIA Amphetamines Mean Rates: 343.1 mAU/min
[2]; 1000 ng/mL
  Enhanced CEDIA Amphetamines Mean Rates: 388.0 mAU/min

## CCNC(C)Cc1ccc2c(c1)OCO2 (stereo not drawn) [MDEA, N-ethyl-3,4-methylenedioxyamphetamine]
Antibody 1A9; [3]
  Rate: 446 MAU/min
Antibody 1A9; [4]
  Apparent Dose: 460* ng/mL
Antibody 1A9; [5]
  Rate: 842 MAU/min
Antibody 1A9; [6]
  Apparent Dose: 4840 ng/mL
Antibody 1A9; [7]
  Rate: 860 MAU/min
Antibody 1A9; [8]
  Apparent Dose: >5000 ng/mL

## CNC(C)Cc1ccc2c(c1)OCO2 (stereo not drawn) [MDMA, 3,4-methylenedioxymethamphetamine]
Antibody 1A9; [3]
  Rate: 349 MAU/min
Antibody 1A9; [5]
  Rate: 762 MAU/min
Antibody 1A9; [7]
  Rate: 845 MAU/min
Antibody 1A9; Antibody 1A9, Experiment 2, concentration 300 ng/mL
  Rate: 378.6 MAU/min
Antibody 1A9; Antibody 1A9, Experiment 2, concentration 1000 ng/mL
  Rate: 840.3 MAU/min
Antibody 1A9; Antibody 1A9, Experiment 2, concentration 5000 ng/mL
  Rate: 990.8 MAU/min

## CN[C@@H](C)Cc1ccccc1 [Methamphetamine]
Antibody 1A9; [9]
  Apparent Dose: 337 ng/mL
  Rate: 417.4 MAU/min
[1]; 150 ng/mL
  Standard CEDIA Amphetamines Mean Rates: 187.2 mAU/min
[1]; 300 ng/mL
  Standard CEDIA Amphetamines Mean Rates: 223.4 mAU/min
[1]; 500 ng/mL
  Standard CEDIA Amphetamines Mean Rates: 262.3 mAU/min
[1]; 700 ng/mL
  Standard CEDIA Amphetamines Mean Rates: 289.9 mAU/min
[1]; 1000 ng/mL
  Standard CEDIA Amphetamines Mean Rates: 320.9 mAU/min
[2]; 150 ng/mL
  Enhanced CEDIA Amphetamines Mean Rates: 233.7 mAU/min
[2]; 300 ng/mL
  Enhanced CEDIA Amphetamines Mean Rates: 271.4 mAU/min
[2]; 500 ng/mL
  Enhanced CEDIA Amphetamines Mean Rates: 308.3 mAU/min
[2]; 700 ng/mL
  Enhanced CEDIA Amphetamines Mean Rates: 334.6 mAU/min
[2]; 1000 ng/mL
  Enhanced CEDIA Amphetamines Mean Rates: 360.8 mAU/min

## CC(N)C(O)c1ccccc1 (stereo not drawn) [phenylpropanolamine]
Antibody 1A9; [10]
  Apparent Dose: 41 ng/mL
  Rate: 185.8 MAU/min

## CN[C@@H](C)[C@@H](O)c1ccccc1 [pseudoephedrine]
Antibody 1A9; [9]
  Apparent Dose: 10 ng/mL
  Rate: 166.6 MAU/min

## (±)ephedrine
Antibody 1A9; [10]
  Apparent Dose: 47 ng/mL
  Rate: 189.7 MAU/min
